# In article doi:10.1101/2023.12.15.571360:
# By UniProt entry, the sequences of proteins in these tests, tags left out.
# UniProt P63104: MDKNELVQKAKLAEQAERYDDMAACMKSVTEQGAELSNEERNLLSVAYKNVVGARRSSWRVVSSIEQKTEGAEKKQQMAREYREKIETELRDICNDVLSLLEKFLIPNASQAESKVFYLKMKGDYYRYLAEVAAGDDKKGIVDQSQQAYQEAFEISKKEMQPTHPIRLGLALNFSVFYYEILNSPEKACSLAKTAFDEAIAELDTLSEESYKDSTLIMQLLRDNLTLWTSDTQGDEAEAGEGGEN
# B1: Dlgap2 (protein, UniProt Q8BJ42 1-1059)
# chain: MGTAQVLPGILQKHCCILPDRNTESQCTLCGEPEEEEGGDLAQPGLSFPGPAEEDIDQQYSWSPTQHFNEERYSPAPRNMKGLTGSRNQPQLCAGHTCGLSPPDDCEHPHDHMHHGSDVRQPYLLSPAESCPMDHHRCSPRSSVHSECMMMPVMLGDHVSSSTFPRMHYSSHYDTRDDCAMSHTSTKVNRIPANLLDQFEKQLPLHRDGFHTLQYQRASAATEQRNESPGRIRHLVHSVQKLFTKSHSLEGSSKSNINGTKSDSRVDDHHQSHLSKHSKRSKSKERKPESKHKSGMSSWWSSDDNLDSDSTYRTPSVAHRHHMDHIPHCYPEALQSPFGDLSLKTSKSNNDVKCSACEGLALTPDTRYMKRSSWSTLTVSQAKEAYRKSSLNLDKPLVHPEIKPSLRPCHYLQVPQDDWGAYPTGGKEEEIPCRRMRSGSYIKAMGDEESGESDSSPKTSPTVAIRPEPLLKPIIQRPLGDHQTQSYLQAATEVPVGHSLNPSINYNSPKFRSRNQSYMRAVSTLSQASCVSQMSEAEVNGQFESVCESVFSEVESQAMDALDLPGCFRTRSHSYLRAIQAGYSQDDECIPVMTSSNMTSTIRSTAAVSYTNYKKTPPPVPPRTTSKPLISVTAQSSTESTQDAYQDSRAQRMSPWPQDSRGGLYNSMDSLDSNKAMNLALETAAAQRHAADTQSSSTRSIDKAVLASKAEELLKSRCSSIGVQDSEFPDHQPYPRSDVETATDSDTESRGLREYHSVGVQVEDEKRHGRFKRSNSVTAAVQADLELEGFPGHVSMEDKGLQFGSSFQRHSEPSTPTQYGALRTVRTQGLFSYREDYRTQVDTSTLPPPDPWLEPSLDTVETGRMSPCRRDGSWFLKLLHTETKRMEGWCKEMEREAEENDLLEDILGKIRSAVGSAQLLMSQKFQQFYWLCQQNMDPSAMPRPTSQDLAGYWDMLQLSVEDVSMKFDELHQLKLNDWKIIESPERKEERKIPPPIPKKPPKGKFPITREKSLDLPDRQRQEARRRLMAAKRAASFRQNSATERADSIEIYIPEAQTRL
# modifications: phosphorylated; sites not shown (Table 1, Supplementary Tables 1 and 2)
# B2: Erc2 (protein, UniProt Q6PH08 1-957)
# chain: MYGSARTISNLEGSPSRSPRLPRSPRLGHRRTSSGGGGGTGKTLSMENIQSLNAAYATSGPMYLSDHEGVASTTYPKGTMTLGRATNRAVYGGRVTAMGSSPNIASAGLSHTDVLSYTDQHGGLSGSSHHHHHQVPSMLRQVRDSTMLDLQAQLKELQRENDLLRKELDIKDSKLGSSMNSIKTFWSPELKKERVLRKEEAARMSVLKEQMRVSHEENQHLQLTIQALQDELRTQRDLNHLLQQESGNRGAEHFTIELTEENFRRLQAEHDRQAKELFLLRKTLEEMELRIETQKQTLNARDESIKKLLEMLQSKGLPSKSLEDDNERTRRMAEAESQVSHLEVILDQKEKENIHLREELHRRSQLQPEPAKTKALQTVIEMKDTKIASLERNIRDLEDEVQMLKANGVLNTEDREEEIKQIEVYKSHSKFMKTKIDQLKQELSKKESELLALQTKLETLSNQNSDCKQHIEVLKESLTAKEQRAAILQTEVDALRLRLEEKESFLNKKTKQLQDLTEEKGTLAGEIRDMKDMLEVKERKINVLQKKIENLQEQLRDKDKQLTNLKDRVKSLQTDSSNTDTALATLEEALSEKERIIERLKEQRERDDRERLEEIESFRKENKDLKEKVNALQAELTEKESSLIDLKEHASSLASAGLKRDSKLKSLEIAIEQKKEECNKLEAQLKKAHNIEDDSRMNPEFADRLKQLDKEASYYRDECGKAQAEVDRLLEILKEVENEKNDKDKKIAELESLTLRHMKDQNKKVANLKYNQQLEKKKNAQLLEEVRRREDSMVDNSQHLQIEELMNALEKTRQELDATKARLASTQQSLAEKEAHLANLRIERRKQLEEILEMKQEALLAAISEKDANIALLELSASKKKKTQEEVMALKREKDRLVHQLKQQTQNRMKLMADNYDEDHHHYHHHHHHHHHRSPGRSQHSNHRPSPDQDDEEGIWA
# modifications: phosphorylated; sites not shown (Supplementary Table 2)
# B3: Dclk1 (protein, UniProt Q9JLM8 1-756)
# chain: MSFGRDMELEHFDERDKAQRYSRGSRVNGLPSPTHSAHCSFYRTRTLQTLSSEKKAKKVRFYRNGDRYFKGIVYAISPDRFRSFEALLADLTRTLSDNVNLPQGVRTIYTIDGLKKISSLDQLVEGESYVCGSIEPFKKLEYTKNVNPNWSVNVKTTSASRAVSSLATAKGGPSEVRENKDFIRPKLVTIIRSGVKPRKAVRILLNKKTAHSFEQVLTDITDAIKLDSGVVKRLYTLDGKQVMCLQDFFGDDDIFIACGPEKFRYQDDFLLDESECRVVKSTSYTKIASASRRGTTKSPGPSRRSKSPASTSSVNGTPGSQLSTPRSGKSPSPSPTSPGSLRKQRISQHGGSSTSLSSTKVCSSMDENDGPGEGDELGRRHSLQRGWRREESEEGFQIPATITERYKVGRTIGDGNFAVVKECIERSTAREYALKIIKKSKCRGKEHMIQNEVSILRRVKHPNIVLLIEEMDVPTELYLVMELVKGGDLFDAITSTSKYTERDASGMLYNLASAIKYLHSLNIVHRDIKPENLLVYEHQDGSKSLKLGDFGLATIVDGPLYTVCGTPTYVAPEIIAETGYGLKVDIWAAGVITYILLCGFPPFRGSGDDQEVLFDQILMGQVDFPSPYWDNVSDSAKELINMMLLVNVDQRFSAVQVLEHPWVNDDGLPENEHQLSVAGKIKKHFNTGPKPSSTAAGVSVIATTALDKERQVFRRRRNQDVRSRYKAQPAPPELNSESEDYSPSSSETVRSPNSPF
# modifications: phosphorylated; sites not shown (Supplementary Table 2)
# B4: Agfg1 (protein, UniProt Q8K2K6 1-561)
# chain: MAASAKRKQEEKHLKMLRDMTGLPHNRKCFDCDQRGPTYVNMTVGSFVCTSCSGSLRGLNPPHRVKSISMTTFTQQEIEFLQKHGNEVCKQIWLGLFDDRSSAIPDFRDPQKVKEFLQEKYEKKRWYVPPEQAKVVASVHASISGSSASSTSSTPEVKPLKSLLGESAPALHLNKGTPSQSPVVGRSQGQQQEKKQFDLLSDLGSDIFAAPAPQSTATANFANFAHFNSHAAQNSANADFANFDAFGQSSGSSNFGGFPTASHSSFQPQTTGGSAGSVNANFAHFDNFPKSSSADFGTFSTSQSHQTASTVSKVSTNKAGLQTADKYAALANLDNIFSAGQGGDQGSGFGTTGKAPVGSVVSVPSHSSASSDKYAALAELDSVFSSAATSSNAYTPTSNASSSVFGTVPVGASAQTQPASSGPAPFGATPSTNPFVAATGPSAASSTNPFQTNARGATAATFGTASMSMPAGFGTPAQYSLPTSFSGSFQQPAFPAQAAFPQQTAFSQQPNGAGFATFGQTKPVVTPFGQVAAAGVSSNPFMTGAPTGQLPTGSSSTNPFL
# modifications: phosphorylated; sites not shown (Supplementary Table 2)
# B5: Erc1 (protein, UniProt Q99MI1 1-1120)
# chain: MYGSARSVGKVEPSSQSPGRSPRLPRSPRLGHRRTNSTGGSSGNSVGGGSGKTLSMENIQSLNAAYATSGPMYLSDHENVGAETPKSTMTLGRSGGRLPYGVRMTAMGSSPNIASSGVASDTIAFGEHHLPPVSMASTVPHSLRQARDNTIMDLQTQLKEVLRENDLLRKDVEVKESKLSSSMNSIKTFWSPELKKERALRKDEASKITIWKEQYRVVQEENQHMQMTIQALQDELRIQRDLNQLFQQDSSSRTGEPCVAELTEENFQRLHAEHERQAKELFLLRKTLEEMELRIETQKQTLNARDESIKKLLEMLQSKGLSAKATEEDHERTRRLAEAEMHVHHLESLLEQKEKENNMLREEMHRRFENAPDSAKTKALQTVIEMKDSKISSMERGLRDLEEEIQMLKSNGALSSEEREEEMKQMEVYRSHSKFMKNKVEQLKEELSSKDAQGEELKKRAAGLQSEIGQVKQELSRKDTELLALQTKLETLTNQFSDSKQHIEVLKESLTAKEQRAAILQTEVDALRLRLEEKETMLNKKTKQIQDMAEEKGTQAGEIHDLKDMLDVKERKVNVLQKKIENLQEQLRDKEKQMSSLKERVKSLQADTTNTDTALTTLEEALADKERTIERLKEQRDRDEREKQEEIDTYKKDLKDLREKVSLLQGDLSEKEASLLDIKEHASSLASSGLKKDSRLKTLEIALEQKKEECLKMESQLKKAHEATLEARASPEMSDRIQQLEREISRYKDESSKAQTEVDRLLEILKEVENEKNDKDKKIAELESLTSRQVKDQNKKVANLKHKEQVEKKKSAQMLEEARRREDSLSDSSQQLQDSLRKKDDRIEELEEALRESVQITAEREMVLAQEESARTNAEKQVEELLMAMEKVKQELESMKAKLSSTQQSLAEKETHLTNLRAERRKHLEEVLEMKQEALLAAISEKDANIALLELSSSKKKTQEEVAALKREKDRLVQQLKQQTQNRMKLMADNYEDDHFRSSRSNQTNHKPSPDQIIQPLLELDQNRSKLKLYIGHLTALCHDRDPLILRGLTPPASYNADGEQAAWENELQQMTQEQLQNELEKVEGDNAELQEFANTILQQIADHCPDILEQVVNALEESS
# modifications: phosphorylated; sites not shown (Supplementary Table 2)
# Biological target: GST-14-3-3ζ (UniProt P63104)
# Assay: affinity purification with mass spectrometry
row,binding,Binder
1,binds,B1
2,binds,B2
3,binds,B3
4,binds,B4
5,binds,B5

# No constants are given. Whether binding was seen depends on the method and setting. Binding seen in cells or lysates may run through a third protein. These calls come from enrichment with a bait or labelling near it, and not all partners need be listed.
